Several values for one entry are separate records, joined by “and”; a condition that tells them apart may be missing. Equal entries are not always repeated. Screen size: about 400,000 compounds; about 13,000 (3.2%) were called active. This list was built around the results that the source calls inconclusive (neither active nor inactive); the mix of calls is not that of the screen. The call rests on the fitted dose curve; in most records, active means well fitted cell-killing curve with a large enough effect; inconclusive means small, poorly fitted or top-dose-only effect, or effect the other way; inactive means flat fitted curve, though single readings scatter. Potencies beside an inconclusive call are fits to weak or partial responses and may not hold up.
Assay: qHTS assay for MDR1-selective chemotherapeutics: Primary screen using the drug-selected MDR subline cells KB-V1; further: nearly all actives have a fitted effect of over 60% in size
Settings: KB-V1 MDR cells viability, CellTiter-Glo, 72 h; activity change, negative = cytotoxicity: at 46.1 µM (top of the series)
Procedure, shortened: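 Luminescent ATP read-out (CellTiter-Glo, 10 min) measures survival of drug-selected KB-V1 MDR cells after 72 h, 37 degrees C compound exposure. Medium: phenol-red-free DMEM, 10% FBS. Values from fitted concentration-response curves.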
On the % scale 0 is the no-effect control and ±100 the full control effect; potency means the concentration at half of the fitted maximal effect.

Row | SMILES | activity change, negative = cytotoxicity | Potency
1 | O=C1Nc2ccccc2/C1=C/c1nc2ccccc2c(=O)n1-c1ccc(O)cc1 | inactive: 0.503% | –
2 | CC12CCC(=O)C=C1C=CC1C2CCC2(C)C(O)CCC12 (centres undefined) | – | active: 2.06 µM
3 | C[C@]12CC[C@H]3[C@@H](CCC4=CC(=O)CC[C@@]43C)[C@@H]1CC[C@@H]2O | – | active: 2.91 µM and active: 3.66 µM
4 | c1ccc(CCNCc2ccccc2)cc1 | – | inconclusive: 13 µM [cytotoxic, partial curve, poor fit]
5 | Cc1ccccc1-n1c(C)nc2sccc2c1=O | inactive: 12.6% | –
6 | C#CC1(O)C=CC2C3CCC4=CC(=O)CCC4C3CCC21CC (centres undefined) | – | inconclusive: 32.6 µM [cytotoxic, single point]
7 | C[n+]1c(-c2ccccc2)c2cc(N)ccc2c2ccc(N)cc21 | inactive: -0.226% | –
8 | CCC(=NC1CCN(Cc2ccccc2)CC1)c1c(O)[nH]c(=O)[nH]c1=O | – | inconclusive: 16.4 µM [cytotoxic, single point]
9 | C=CCn1c(O)c(C(C)=Nc2ccc3c(c2)CCC3)c(=O)[nH]c1=O | – | inconclusive: 10.3 µM [cytotoxic, partial curve]
10 | C[C@]12CCC3C(CC[C@H]4C[C@@H](O)CC[C@]34C)C1C[C@@H](O)[C@H]2O (some centres undefined) | inactive: 16% | –
11 | CCCCCCn1c(O)c(C=NCCN2CCCCC2)c(=O)[nH]c1=O | – | inconclusive: 29.1 µM [rising, single point]
12 | CCC(C(=O)Nc1ccccc1F)N1C(=O)CN=C(c2ccccc2)c2ccccc21 (centres undefined) | – | inconclusive: 18.4 µM [cytotoxic, single point]
13 | COc1ccc(C(c2nnnn2-c2ccc(OC)cc2)N2CCC3(CC2)C(=O)NCN3c2ccccc2)cc1 (centres undefined) | – | inconclusive: 20.6 µM [cytotoxic, single point]
14 | OC12Oc3ccccc3C=C1N1CCC2CC1 (centres undefined) | – | inconclusive: 32.6 µM [rising, partial curve, poor fit]
15 | CN[C@@H](C)[C@H](O)c1ccccc1 | – | inconclusive: 29.1 µM [rising, single point]
16 | COC(=O)C1=C(c2ccc(OCc3ccccc3)cc2)C[C@@H]2CC[C@H]1N2C | – | inconclusive: 20.6 µM [cytotoxic, partial curve, poor fit]
17 | CCc1ccc(-n2nc(C)c3c2NC(=O)CSC3c2ccc(OC)cc2OC)cc1 (centres undefined) | inactive: -12.3% | –
18 | O=C(COc1ccc(S(=O)(=O)N2CCOCC2)cc1)N1CCN(Cc2ccc3c(c2)OCO3)CC1 | – | active: 16.4 µM
19 | COc1ccc(Cl)cc1NC(=O)c1sc2nc3c(cc2c1N)N1CCC3CC1 | – | inconclusive: 16.4 µM [rising, single point]

Quoted at random: 2 entries already listed, in no set order.
Row | SMILES | activity change, negative = cytotoxicity | Potency
6 | C#CC1(O)C=CC2C3CCC4=CC(=O)CCC4C3CCC21CC (centres undefined) | – | inconclusive: 32.6 µM [cytotoxic, single point]
12 | CCC(C(=O)Nc1ccccc1F)N1C(=O)CN=C(c2ccccc2)c2ccccc21 (centres undefined) | – | inconclusive: 18.4 µM [cytotoxic, single point]
